Structures are written as SMILES. The list shows a part of the results. These are further read-outs of the screen, such as a control signal, another cell line or another target. No call is given for them. The list favours compounds with an active or inconclusive main result. The note in brackets gives the kind of curve behind each potency; many fits are weak.

The text below walks through data of PubChem BioAssay AID2685 (National Center for Advancing Translational Sciences (NCATS), 2010).

This experiment is described as follows: qHTS Assay for Lipid Storage Modulators in Drosophila S3 Cells.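 On cell number change: cells counted by Cell Tracker Red CMTPX staining in the red channel.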 The note with it: BODIPY lipid droplet fluorescence, 18-24 h; for cell number change: measured here: cell count max response, cells fed with added oleic acid. The method, boiled down: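 Drosophila S3 cells loaded with oleic acid (400 uM, as added) and compounds at several concentrations; lipid droplets imaged by 488-nm laser-scanning cytometry, 500–530 nm intensity and object ratio to cell channel. Percent activity normalized to 20 uM Triacsin C.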

Setting [1] is: measured here: cell number channel AC50, cells fed with added oleic acid.
Where [2] appears, read: measured here: lipid fluorescence (Fed channel) AC50, cells fed with added oleic acid.

As to `CCOCc1cn(CC(=O)c2ccc([N+](=O)[O-])cc2)c(C)nc1=N`, the cell number change came to 25.9%.

As for `O=C(CCSCCC(=O)NCc1ccccc1)NCc1ccccc1`, the cell number change was -52.4%. Further, the AC50 under setting [1] is 7.31 µM [falling, partial curve]. Also, the AC50 under setting [2] was 0.651 µM [falling, partial curve, poor fit].

On to `O=C(COC(=O)CCc1c[nH]c2ccccc12)NCCc1ccccc1`, for which the cell number change turned out to be 56.2%. The AC50 under setting [1] was 3.66 µM [falling, single point].

For `CC(=O)c1cccc(NC(=O)COC(=O)c2ccc3c(c2)OCO3)c1`, the cell number change was -27%. The AC50 under setting [2] is 0.184 µM [falling, full curve].

`COc1ccc(C(=O)NCCCOC(=O)c2ccc(OC)cc2)cc1`: the cell number change stood at 7.27%. The AC50 under setting [2] is 0.282 µM [rising, full curve, poor fit].

With `Cc1ccc(C)c(NC(=O)CN(C)C(=O)c2cccc(S(=O)(=O)N3CCCC3)c2)c1`, the cell number change was -9.29%.

Regarding `O=C(c1ccc(Cl)cc1)c1coc2ccc(O)cc12`, the cell number change is -50%. The AC50 under setting [1] is 29.1 µM [falling, single point]. Under setting [2], the half-maximal activity concentration (AC50) was 18.4 µM [falling, single point].

For the compound `S=C1CCC(c2ccc(Br)cc2)=NN1c1ccccc1`, the cell number change is -11.2%. Further, under setting [2], the AC50 was 0.731 µM [falling, full curve, poor fit].

As to `CCOC(=O)c1c(CSc2ccccc2)n(C)c2cc(Br)c(OC)c(O)c12`, the cell number change amounted to 15.3%. The AC50 under setting [2] was 7.31 µM [rising, partial curve, poor fit].

For the compound `CC(OC(=O)CCN=C1NS(=O)(=O)c2ccccc21)C(=O)Nc1ccc(F)c(F)c1F` (centres undefined), the cell number change was -5.44%. The AC50 under setting [2] was 4.11 µM [rising, partial curve].

For `COc1ccccc1OCC(=O)N/N=C/c1cccc2cccnc12`, the cell number change is -40.2%. The AC50 under setting [1] is 0.13 µM [falling, partial curve, poor fit]. Besides, the AC50 under setting [2] is 32.6 µM [falling, single point].

In the case of `Cc1ccc(NC(=O)C2CCN(S(=O)(=O)c3c(C)nn(C)c3C)CC2)c(Cl)c1`, the cell number change was 36.1%. Under setting [1], the AC50 is 20.6 µM [rising, partial curve]. Besides, the half-maximal activity concentration (AC50) under setting [2] was 25.9 µM [rising, partial curve].

Consider `Cn1c(N)c(C(=O)CSc2nnc(-c3ccccc3F)n2C2CC2)c(=O)n(C)c1=O`, for which the AC50 under setting [2] is 0.206 µM [rising, full curve, poor fit].

On to `Cc1ccc(S(=O)(=O)N2CCCCC2)cc1NC(=O)COC(=O)c1ccc(=O)[nH]c1`, for which the cell number change was -1.76%. Moreover, under setting [2], the AC50 was 5.17 µM [rising, full curve].

Turning to `Cc1ccc(S(=O)(=O)NCC(=O)OCC(=O)NCc2ccc(F)cc2)cc1`, the cell number change is -29.4%. For the same compound, the AC50 under setting [2] is 32.6 µM [falling, single point].

Consider `COc1ccc(Cn2c(C)nc3c(c(=O)c4ccccc4n3C)c2=O)cc1`, for which the cell number change was -40.3%. Besides, under setting [1], the AC50 was 3.66 µM [falling, full curve, poor fit]. Also, the AC50 under setting [2] was 4.61 µM [falling, full curve].

The AC50 is the concentration giving half of the maximal activity seen. Lower therefore signals activity at low concentration.
